For part of these data: Negatives hold for the conditions tested. For part of these data: The exact form of at least one protein or probe is not confirmed.
Columns and labels:
[1] = tested on: thrombin (human alpha thrombin) (human); assay: inhibition of the protein; conditions: purified native protein, protein details: Haematologic Technologies Inc., single-stranded DNA
factor Xa (human) = assay: inhibition of the protein; conditions: 5' dabigatran-C6 amide; 5' A(7) dA linker; purified native protein; protein details: Haematologic Technologies Inc.; label: biotin for BLI; single-stranded DNA; variant of HD22; dose not given here
thrombin S195A (human) = assay: structure; conditions: 5' dabigatran-C6 amide; 5' A(7) dA linker; crystal structure 2.2 Å, PDB 8TQS; aptamer on exosite 2, DAB in S1 pocket; purified recombinant protein; label: biotin for BLI; single-stranded DNA; variant of HD22
[2] = 3' C6-dabigatran, dT linker, 3' linked conjugates similar potency to HD22-7A-DAB, values in figure, variant of HD22, dose not given here

AAAAAAAAGTCCGTGGTAGGGCAGGTTGGGGTGACT [HD22-7A-DAB-3'CH]
functional effect of the aptamer ([1]; 5' dabigatran-C6, 3' cholesterol, similar potency to HD22-7A-DAB, variant of HD22-7A-DAB, dose not given here): active

AAAAAAAAGTCCGTGGTAGGGCAGGTTGGGGTGACT [HD22-7A-DAB-3'invT]
functional effect of the aptamer ([1]; 5' dabigatran-C6, 3' inverted dT, similar potency to HD22-7A-DAB, variant of HD22-7A-DAB, dose not given here): active

AAAAAAAAGTCCGTGGTAGGGCAGGTTGGGGTGACT [HD22-7A-DAB]
functional effect of the aptamer (factor Xa (human)): not active | functional effect of the aptamer ([1]; 5' dabigatran-C6 amide, 5' A(7) dA linker, complete inhibition of fibrinogen clotting at 50 nM and of FVIII cleavage at 100 nM, label: biotin for BLI, variant of HD22): active | binding result (thrombin S195A (human)): binds

AGTCCGTGGTAGGGCAGGTTGGGGTGACTT [HD22-1T-DAB]
functional effect of the aptamer [1, 2]: active

AGTCCGTGGTAGGGCAGGTTGGGGTGACTTT [HD22-2T-DAB]
functional effect of the aptamer ([1]; 3' C6-dabigatran, dT linker, similar potency to HD22-7A-DAB, reversed by 3TAO1, variant of HD22, dose not given here): active

AGTCCGTGGTAGGGCAGGTTGGGGTGACTTTT [HD22-3T-DAB]
functional effect of the aptamer [1, 2]: active

GGTTGGTGTGGTTGGAAAAAAAAAAAA [HD1-12A-DAB]
functional effect of the aptamer ([1]; 3' C6-dabigatran, dA linker, much stronger than DAB, HD1 or mixture, reversed by HD1-AO, variant of HD1, dose not given here): active

Reference: patent publication US20260176636
